From patent US20220002427A1, “BISPECIFIC ANTIBODY AGAINST BCMA AND CD3 AND AN IMMUNOLOGICAL DRUG FOR COMBINED USE IN TREATING MULTIPLE MYELOMA” (ENGMAB SARL, priority 2016, published 2022)
No constants are given. Whether binding was seen depends on the method and setting. Some binding calls cover weakened binding; strength is not graded here.

Chains of the proteins cited; added tags and fusions are not shown.
UniProt Q02223: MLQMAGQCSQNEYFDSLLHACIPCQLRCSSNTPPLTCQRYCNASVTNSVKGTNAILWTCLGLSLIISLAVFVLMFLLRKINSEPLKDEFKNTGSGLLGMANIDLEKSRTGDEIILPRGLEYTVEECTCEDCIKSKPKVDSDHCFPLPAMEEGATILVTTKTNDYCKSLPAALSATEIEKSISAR

B1: Mab 34 (antibody, V domains shown)
VH: EVQLLESGGGLVQPGGSLRLSCAASGFTFYTNAMGWVRQAPGKGLEWVSAINRFGGSTYYADSVKGRFTISRDNSKNTLYLQMNSLRAEDTAVYYCAKVLGWFDYWGQGTLVTVSS
VL: EIVLTQSPGTLSLSPGERATLSCRASQSVSSYYLAWYQQKPGQAPRLLISGAGSRATGIPDRFSGSGSGTDFTLTISRLEPEDFAVYYCQQYGYPPDFTFGQGTKVEIK
B2: Mab 44 (antibody, V domains shown)
VH: EVQLLESGGGLVQPGGSLRLSCAASGFTFSSAPMGWVRQAPGKGLEWVSAISYIGHTYYADSVKGRFTISRDNSKNTLYLQMNSLRAEDTAVYYCAKVLGWFDYWGQGTLVTVSS
VL: EIVLTQSPGTLSLSPGERATLSCRASQSVSDEYLSWYQQKPGQAPRLLIHSASTRATGIPDRFSGSGSGTDFTLAISRLEPEDFAVYYCQQYGYPPDFTFGQGTKVEIK
B3: Mab 28 (antibody, V domains shown)
VH: EVQLLESGGGLVQPGGSLRLSCAASGFTFSSAPMGWVRQAPGKGLEWVSAISYIGHTYYADSVKGRFTISRDNSKNTLYLQMNSLRAEDTAVYYCAKVLGWFDYWGQGTLVTVSS
VL: EIVLTQSPGTLSLSPGERATLSCRASQSVSSYYLAWYQQKPGQAPRLLISGAGSRATGIPDRFSGSGSGTDFTLTISRLEPEDFAVYYCQQYGYPPDFTFGQGTKVEIK
B4: Mab 14 (antibody, V domains shown)
VH: EVQLLESGGGLVQPGGSLRLSCAASGFTFYTNAMGWVRQAPGKGLEWVSAINRFGGSTYYADSVKGRFTISRDNSKNTLYLQMNSLRAEDTAVYYCAKVLGWFDYWGQGTLVTVSS
VL: EIVLTQSPGTLSLSPGERATLSCRASQSVSDEYLSWYQQKPGQAPRLLIHSASTRATGIPDRFSGSGSGTDFTLAISRLEPEDFAVYYCQQYGYPPDFTFGQGTKVEIK

molecular target: human BCMA on cells (human) (UniProt Q02223); test: flow cytometry on HEK-huBCMA cells, detection with PE-labelled anti-human Fc

binding, binds:
B1
B2
B3
B4
